{"sequences": {"note": "Amino acid sequences for entries named in this document (tags omitted). A change or cut given only in a name is not applied to a line headed by its entry.", "UniProt Q13131": "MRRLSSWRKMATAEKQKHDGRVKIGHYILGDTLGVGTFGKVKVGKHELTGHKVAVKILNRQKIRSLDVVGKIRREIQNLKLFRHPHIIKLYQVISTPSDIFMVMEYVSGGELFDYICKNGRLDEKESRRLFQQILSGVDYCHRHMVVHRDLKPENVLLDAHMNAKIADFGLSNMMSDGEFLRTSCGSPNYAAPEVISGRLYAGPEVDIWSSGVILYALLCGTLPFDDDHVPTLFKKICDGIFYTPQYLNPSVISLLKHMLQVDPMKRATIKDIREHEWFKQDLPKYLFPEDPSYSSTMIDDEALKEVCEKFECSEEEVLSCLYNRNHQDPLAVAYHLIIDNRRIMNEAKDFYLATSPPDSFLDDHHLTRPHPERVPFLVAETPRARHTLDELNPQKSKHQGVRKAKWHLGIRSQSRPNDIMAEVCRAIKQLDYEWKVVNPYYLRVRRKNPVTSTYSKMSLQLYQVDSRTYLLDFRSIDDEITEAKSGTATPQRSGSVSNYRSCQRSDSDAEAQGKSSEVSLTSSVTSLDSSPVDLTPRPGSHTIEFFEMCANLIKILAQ", "UniProt Q9Y478": "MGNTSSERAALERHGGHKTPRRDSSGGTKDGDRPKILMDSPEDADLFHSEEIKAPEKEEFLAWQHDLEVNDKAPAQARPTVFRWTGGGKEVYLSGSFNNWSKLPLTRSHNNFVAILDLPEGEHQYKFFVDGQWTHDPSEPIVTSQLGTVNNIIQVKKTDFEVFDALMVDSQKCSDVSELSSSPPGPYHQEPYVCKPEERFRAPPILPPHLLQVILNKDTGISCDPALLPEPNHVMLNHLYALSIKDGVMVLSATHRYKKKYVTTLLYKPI"}, "source": "patent US8563746B2", "about": "“Cyclic benzimidazole derivatives useful as anti-diabetic agents” (Merck Sharp & Dohme Corp, priority 2008, dated 2013)", "target": "recombinant human AMPK complex 1 (containing α1β1γ1) (Homo sapiens, UniProt Q13131+Q9Y478)", "experiment": "In vitro AMPK activation assay ([…])", "assay_type": "biochemical", "details": "read-out: EC50 values; recombinant human AMPK complex 1 (α1β1γ1)", "description": "The recombinant human AMPK complex 1 (containing α1β1γ1) was obtained from baculovirus expression system. Recombinant viruses were generated by cotransfection of AMPK/pBacPak9 clones with Baculogold baculovirus DNA (Pharmingen) in spodoptera frugiperda 21 cells according to the manufacturer's instructions. Each round of virus amplification was performed for 5 days in Grace's medium containing 10% serum. Virus that had been subjected to three rounds of amplification was used for all protein production procedures. To express the AMPK complex, sf21 cells were adapted to serum free medium (SF900 II, Invitrogen) by sequential dilution from serum containing stocks into SF900II medium and maintained in shaker flasks at 90 rpm at 27° C. The recombinant AMPK enzyme complex was produced by triple infection, one recombinant virus for each of the subunits, in sf21 cells under serum free conditions. Cells were infected in log phase, 1×10^6 cells/ml, at a multiplicity of infection of ˜5. Cells were harvested by centrifugation at 10,000×g for 15 minutes after 72 hours of infection with viruses. […]\nThe total in vitro AMPK activation assay volume is 50 μl in a 96-well plate. […] The counts per minute from the basal activity (the reaction without activator) was subtracted from each well and the data were expressed as % maximum AMP activation followed by EC50 calculation.", "note": "Some of these results come from one statement about several compounds together."}
{"compound": "O=C(O)CSc1nc2cc(C#Cc3ccccc3)c(Cl)cc2[nH]1", "note": "[Example 1, (6-Chloro-5-phenylethynyl-1H-benzoimidazol-2-ylsulfanyl)-acetic acid]", "values": [{"measurement": "EC50", "result": "< 10", "unit": "µM"}]}
{"compound": "O=C(O)CSc1nc2cc(-c3ccc(-c4ccccc4)cc3)c(Cl)cc2[nH]1", "note": "[Example 2, (5-Biphenyl-4-yl-6-chloro-1H-benzoimidazol-2-ylsulfanyl)-acetic acid]", "values": [{"measurement": "EC50", "result": "< 10", "unit": "µM"}]}
